From patent US11382883B2, “Intermediate metabolism products to potentiate aminoglycoside antibiotics in bacterial infections” (TRUSTEES OF BOSTON UNIVERSITY, priority 2013, dated 2022)
At least one structure is not confirmed: it was looked up by name or label, or the drawing left a doubt.

Tested on: P. aeruginosa persisters
Experiment: Persister cell eradication: carbon sources plus tobramycin, survival by c.f.u. counting
Type: cell-based, Pseudomonas aeruginosa

CC(=O)C(=O)O [pyruvate]
potentiation of antibiotic efficacy / sensitization to aminoglycoside antibiotics (P. aeruginosa cells in various reduced metabolic states, in conjunction with aminoglycosides): sensitize the bacterium to aminoglycoside antibiotics
potentiation of tobramycin killing of persisters by carbon source (efficiency of tested metabolites) (tobramycin 40 mg/l, carbon sources normalized to 60 mM carbon, M9 minimal media, ciprofloxacin-selected persisters): variable levels of efficiency
